The source of these data is paper PMC5655499, “Peptide array-based screening reveals a large number of proteins interacting with the ankyrin-repeat domain of the zDHHC17 S-acyltransferase” (The Journal of Biological Chemistry, 2017).

Protein sequences, listed by entry. Tags and fused reporters are not part of them. Residues count along the entry.
UniProt Q8IUH5, residues 51-304: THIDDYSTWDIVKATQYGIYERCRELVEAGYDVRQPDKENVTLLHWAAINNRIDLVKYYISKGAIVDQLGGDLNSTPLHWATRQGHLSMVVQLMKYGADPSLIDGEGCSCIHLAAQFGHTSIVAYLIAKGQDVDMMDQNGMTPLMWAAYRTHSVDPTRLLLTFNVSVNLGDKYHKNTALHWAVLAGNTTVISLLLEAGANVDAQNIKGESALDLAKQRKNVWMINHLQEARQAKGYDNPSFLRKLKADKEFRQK
UniProt Q80TN5: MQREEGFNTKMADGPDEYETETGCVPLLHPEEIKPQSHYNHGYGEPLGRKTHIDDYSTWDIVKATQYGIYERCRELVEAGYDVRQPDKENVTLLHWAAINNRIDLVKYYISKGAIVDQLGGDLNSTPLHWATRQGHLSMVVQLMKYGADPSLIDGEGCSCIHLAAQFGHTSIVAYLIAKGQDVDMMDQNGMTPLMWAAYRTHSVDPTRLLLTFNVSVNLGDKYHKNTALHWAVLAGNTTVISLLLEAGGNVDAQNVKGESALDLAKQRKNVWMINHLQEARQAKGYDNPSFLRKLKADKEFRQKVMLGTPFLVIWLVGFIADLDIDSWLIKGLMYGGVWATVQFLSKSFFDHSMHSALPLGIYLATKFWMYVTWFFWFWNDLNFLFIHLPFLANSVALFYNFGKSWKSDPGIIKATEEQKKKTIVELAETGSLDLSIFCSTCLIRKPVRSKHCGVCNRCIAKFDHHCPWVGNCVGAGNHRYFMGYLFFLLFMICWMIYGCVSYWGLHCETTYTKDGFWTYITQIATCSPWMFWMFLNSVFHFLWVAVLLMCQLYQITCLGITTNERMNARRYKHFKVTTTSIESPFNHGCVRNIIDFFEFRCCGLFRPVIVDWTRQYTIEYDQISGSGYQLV

These are yes or no findings as the source states them, for the method shown. For part of these data: Binding seen in cells or lysates may run through a third protein. For part of these data: Tags and fused reporters may be left off the sequences shown. Some entries that bind do so weakly or less than the wild type.

Test [1] addresses ARzD17-His (51–304 amino acids of human zDHHC17) (human) (UniProt Q8IUH5). In words: pull-down; HEK293T lysates with EGFP-tagged proteins incubated with 50 μg ARzD17-His (51–304) and Ni-NTA agarose, 2 h at 4 °C; washes 20 mM Tris-HCl pH 8, 300 mM NaCl, 1% Triton, 40 mM imidazole; blot with GFP antibody; only the target purified.
Test [2] has as its target T1, murine zDHHC13-Cub-PLV bait (mouse) (UniProt Q9CWU2).
T1 sequence: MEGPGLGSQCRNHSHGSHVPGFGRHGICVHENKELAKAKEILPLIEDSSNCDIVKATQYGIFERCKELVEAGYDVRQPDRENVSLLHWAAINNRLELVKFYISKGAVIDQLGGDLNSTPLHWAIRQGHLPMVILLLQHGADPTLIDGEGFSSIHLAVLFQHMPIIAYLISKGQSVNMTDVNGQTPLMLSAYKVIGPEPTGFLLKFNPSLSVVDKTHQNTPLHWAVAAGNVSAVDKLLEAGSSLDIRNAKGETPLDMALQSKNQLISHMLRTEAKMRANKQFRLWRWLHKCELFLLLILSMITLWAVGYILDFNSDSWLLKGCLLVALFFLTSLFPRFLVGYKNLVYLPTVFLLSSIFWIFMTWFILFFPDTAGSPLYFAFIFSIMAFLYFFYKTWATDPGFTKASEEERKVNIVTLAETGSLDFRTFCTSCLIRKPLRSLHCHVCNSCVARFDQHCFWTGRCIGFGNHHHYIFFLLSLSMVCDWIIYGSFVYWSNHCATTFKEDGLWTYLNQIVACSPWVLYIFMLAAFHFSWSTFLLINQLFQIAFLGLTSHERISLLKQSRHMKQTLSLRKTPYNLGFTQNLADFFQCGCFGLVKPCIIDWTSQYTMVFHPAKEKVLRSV
Briefly: two-hybrid; mating-based split-ubiquitin system (SUS) in yeast; zDHHC-Cub-PLV bait, NubG-2HA-tagged prey; growth on SD media lacking adenine and histidine.

Test [3] deals with murine zDHHC17-Cub-PLV bait (mouse) (UniProt Q80TN5). Described as above.

B1: EGFP-tagged EVL isoform 5 (protein, UniProt Q9UI08-5 1-397)
chain: MATSEQSICQARASVMVYDDTSKKWVPIKPGQQGFSRINIYHNTASNTFRVVGVKLQDQQVVINYSIVKGLKYNQATPTFHQWRDARQVYGLNFASKEEATTFSNAMLFALNIMNSQEGGPSSQRQVQNGPSPDEMDIQRRQVMEQHQQQRQESLERRTSATGPILPPGHPSSAASAPVSCSGPPPPPPPPVPPPPTGATPPPPPPLPAGGAQGSSHDESSMSGLAAAIAGAKLRRVQRPEDASGGSSPSGTSKSDANRASSGGGGGGLMEEMNKLLAKRRKAASQSDKPAEKKEDESQMEDPSTSPSPGTRAASQPPNSSEAGRKPWERSNSVEKPVSSILSRMKPAGSVNDMALDAFDLDRMKQEILEEVVRELHKVKEEIIDAIRQELSGISTT
In the case of B1, the binding result in test [1] is “no binding”.

B2: NubG-2HA-SPRED2, wild-type murine SPRED2 (protein, UniProt Q924S7 1-410)
chain: MTEETHPDDDSYIVRVKAVVMTRDDSSGGWFPQEGGGISRVGVCKVMHPEGNGRSGFLIHGERQKDKLVVLECYVRKDLVYTKANPTFHHWKVDNRKFGLTFQSPADARAFDRGVRKAIEDLIEGSTTSSSTLHNEAELGDDDVFTTATDSSSNSSQKREPTTRTISSPTSCEHRKIYTLDPYPMDHYHPDQRLPRSYPQVTFPEDDEEIVRINPREKIWMTGYEDYRHAPVRGKYLDTTEDADSYVRFAKGEVPKHEYTYPYVDSSDFGFGEDPKGSVIKTQPPRAKSRRRKENGERSRCVYCRDMFNHEENRRGHCQDAPDAVRTCIRRVSCMWCADSMLYHCMSDPEGDYTDPCSCDTSDEKFCLRWMALIALSFLAPCMCCYLPLRACHRCGVMCRCCGGKHKAAA
Turning to B2, the binding result in test [2] and in test [3] was “binds” in each case.
